Reference: PMC8834682
No constants are given. Whether binding was seen depends on the method and setting. In cells and extracts the contact can be indirect. Some binding calls cover weakened binding; strength is not graded here. Values belong to the binder of their own block, whether it stands above or below them.

Experiments:
[1] = biological target: T1, mRuby3-linked E47:ΔNLS acceptor (E47 p.(Arg158_Arg174del)) (UniProt P15923); experiment: FRET or BRET; TCSPC-based FLIM-FRET in living HEK293T cells; N-terminal mNeonGreen-linked ATOH7 donor, C-terminal mRuby3-linked E47 acceptor; 36.5 °C, 5.0% CO2; MG-132 for 4 h before imaging; nuclear and extranuclear regions of interest
T1 sequence: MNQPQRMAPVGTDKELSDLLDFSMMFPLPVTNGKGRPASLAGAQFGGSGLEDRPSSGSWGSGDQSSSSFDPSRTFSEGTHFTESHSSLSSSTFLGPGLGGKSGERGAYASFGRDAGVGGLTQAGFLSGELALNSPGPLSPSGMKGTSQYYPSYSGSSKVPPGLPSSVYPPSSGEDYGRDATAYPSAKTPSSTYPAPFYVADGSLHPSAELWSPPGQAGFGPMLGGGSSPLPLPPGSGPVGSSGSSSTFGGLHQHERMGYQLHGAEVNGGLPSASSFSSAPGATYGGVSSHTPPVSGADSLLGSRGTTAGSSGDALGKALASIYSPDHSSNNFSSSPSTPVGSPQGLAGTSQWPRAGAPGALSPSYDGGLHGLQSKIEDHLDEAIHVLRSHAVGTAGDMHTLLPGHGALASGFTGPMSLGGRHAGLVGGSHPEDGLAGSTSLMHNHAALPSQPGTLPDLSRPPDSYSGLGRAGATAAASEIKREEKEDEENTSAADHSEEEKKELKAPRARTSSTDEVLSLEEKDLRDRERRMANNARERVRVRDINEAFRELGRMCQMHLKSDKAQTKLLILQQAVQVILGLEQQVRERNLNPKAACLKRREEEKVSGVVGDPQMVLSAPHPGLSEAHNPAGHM

[2] = biological target: T2, mRuby3-linked E47:WT acceptor (transcription factor 3 isoform E47, wild type) (UniProt P15923); experiment: as above
T2 sequence: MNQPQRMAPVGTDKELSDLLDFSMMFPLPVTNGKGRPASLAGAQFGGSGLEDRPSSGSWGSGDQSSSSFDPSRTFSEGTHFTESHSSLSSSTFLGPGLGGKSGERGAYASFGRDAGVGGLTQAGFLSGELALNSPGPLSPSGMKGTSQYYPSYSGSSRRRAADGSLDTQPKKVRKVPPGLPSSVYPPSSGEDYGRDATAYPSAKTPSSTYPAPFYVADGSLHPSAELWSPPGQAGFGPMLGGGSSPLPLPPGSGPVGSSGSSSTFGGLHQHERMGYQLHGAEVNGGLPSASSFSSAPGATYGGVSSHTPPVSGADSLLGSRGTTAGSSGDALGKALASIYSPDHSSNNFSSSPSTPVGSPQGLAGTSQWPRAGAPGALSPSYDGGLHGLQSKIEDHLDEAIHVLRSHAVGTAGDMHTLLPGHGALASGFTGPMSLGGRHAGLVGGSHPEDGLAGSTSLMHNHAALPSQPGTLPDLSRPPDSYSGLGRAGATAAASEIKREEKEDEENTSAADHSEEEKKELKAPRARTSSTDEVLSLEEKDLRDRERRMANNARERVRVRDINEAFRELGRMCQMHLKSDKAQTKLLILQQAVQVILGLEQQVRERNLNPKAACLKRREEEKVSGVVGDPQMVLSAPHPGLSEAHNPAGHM

binding [1]: binds
binding [2]: binds
B1: mNeonGreen-linked ATOH7:R41_R48del donor (protein, UniProt Q8N100)
chain: MKSCKPSGPPAGARVAPPCAGGTECAGTCAGAGRLESAARERRRMQGLNTAFDRLRRVVPQWGQDKKLSKYETLQMALSYIMALTRILAEAERFGSERDWVGLHCEHFGRDHYLPFPGAKLPGESELYSQRLFGFQPEPFQMAT

binding [2]: binds
B2: mNeonGreen-linked ATOH7:A59T donor (protein, UniProt Q8N100 1-152)
chain: MKSCKPSGPPAGARVAPPCAGGTECAGTCAGAGRLESAARRRLAANARERRRMQGLNTTFDRLRRVVPQWGQDKKLSKYETLQMALSYIMALTRILAEAERFGSERDWVGLHCEHFGRDHYLPFPGAKLPGESELYSQRLFGFQPEPFQMAT
